PubChem BioAssay AID686938, Drosophila RNAi Screening Center, 2013

- Screen: 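Fly genes required for calcium entry once internal stores are emptied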 (primary screen)
- Cell system: Drosophila S2R+ cells
- Knock-down reagent: long dsRNA against Drosophila genes, about 0.25 µg dsRNA per well, roughly 10,000 cells
- Time to read-out: 5 days of knock-down before the calcium assay
- Challenge: thapsigargin (SERCA pump blocker) to empty calcium stores; entry signal taken 4 min after adding it
- Measurement: 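Duplicate raw fluo-4 intensities per well from a plate reader, at rest and four minutes after thapsigargin emptied calcium stores; entry-to-rest ratio filled for only some wells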
- Direction: calcium entry signal: higher = stronger calcium signal after store depletion; entry to resting ratio: higher = more calcium entry relative to resting level; resting calcium signal: higher = higher resting calcium signal
- Rule for the call: 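Hit if the duplicate-averaged plate z-score for entry over resting signal is under −3; wells with weak total dye signal (Fmax z < −2) or more than 5 off-targets removed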
- Calls: active = strongly reduced calcium entry; inactive = no strong reduction
The screen tested about 23,000 reagents; shown is a random part of those that have a named target and a result. Of all reagents, 75 (0.33%) are marked active. 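Raw plate signals without normalisation; calls rest on plate z-scores that were not deposited; ratio present for only 364 wells.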 Names joined by + are all predicted targets of the reagent. Not stated in the record: the dose of the treatment.

| gene | amplicon | calcium entry signal, replicate 1 (fluorescence units) | calcium entry signal, replicate 2 (fluorescence units) | entry to resting ratio | resting calcium signal, replicate 1 (fluorescence units) | resting calcium signal, replicate 2 (fluorescence units) | Outcome |
| --- | --- | --- | --- | --- | --- | --- | --- |
| CG6652 | DRSC10686 | 3.17e7 | 4.68e7 | – | 1.43e7 | 2.93e7 | inactive |
| Tif-IA | DRSC03717 | 2.86e7 | – | – | 1.60e7 | – | inactive |
| Tif-IA | DRSC03726 | 3.96e7 | 3.06e7 | – | 2.23e7 | 1.54e7 | inactive |
| CG13428 | DRSC06390 | 5.28e7 | 3.34e7 | – | 2.16e7 | 1.64e7 | inactive |
| CG3630 | DRSC18499 | 2.57e7 | 3.47e7 | – | 1.32e7 | 1.72e7 | inactive |
| CG42241 (retired record) | DRSC04007 | 2.04e7 | 3.51e7 | – | 1.10e7 | 1.51e7 | inactive |
| ND-B14.5A | DRSC18500 | 5.18e7 | 5.17e7 | 2 | 2.60e7 | 2.26e7 | inactive |
| Tbcd | DRSC00273 | 3.58e7 | – | – | 1.70e7 | – | inactive |
| l(3)76BDm | DRSC11047 | 2.64e7 | 3.48e7 | – | 1.20e7 | 2.54e7 | inactive |
| sbb | DRSC05723 | 2.68e7 | 6.13e7 | – | 1.35e7 | 2.88e7 | inactive |
| sbb | DRSC07676 | 4.28e7 | 4.47e7 | – | 1.89e7 | 1.99e7 | inactive |
| Gr28b | DRSC02291 | 3.77e7 | 3.78e7 | – | 1.84e7 | 1.77e7 | inactive |
| Gr28b | DRSC02292 | 3.85e7 | 3.83e7 | – | 1.92e7 | 1.71e7 | inactive |
| CG9098 | DRSC03136 | 5.73e7 | 3.56e7 | – | 2.36e7 | 1.51e7 | inactive |
| CG9098 | DRSC22501 | 5.09e7 | 2.70e7 | – | 2.56e7 | 1.31e7 | inactive |
| LpR2 | DRSC13726 | 3.37e7 | 3.82e7 | – | 1.59e7 | 1.99e7 | inactive |
| LpR2 | DRSC13728 | 3.10e7 | 4.25e7 | – | 1.50e7 | 1.96e7 | inactive |
| LpR2 | DRSC15655 | 2.96e7 | 3.66e7 | – | 1.36e7 | 1.86e7 | inactive |
| LpR2 | DRSC15658 | 4.12e7 | 4.91e7 | – | 1.95e7 | 2.13e7 | inactive |
| Sms | DRSC10408 | 2.82e7 | 5.18e7 | – | 1.48e7 | 2.23e7 | inactive |
| CG31106 | DRSC14655 | 3.84e7 | 6.20e7 | – | 2.01e7 | 2.49e7 | inactive |
| RpS5a | DRSC20282 | 1.52e7 | 2.17e7 | – | 9.41e6 | 1.24e7 | inactive |

Sorted by “resting calcium signal, replicate 2 (fluorescence units)” (low to high): some entries from above
| gene | amplicon | calcium entry signal, replicate 1 (fluorescence units) | calcium entry signal, replicate 2 (fluorescence units) | entry to resting ratio | resting calcium signal, replicate 1 (fluorescence units) | resting calcium signal, replicate 2 (fluorescence units) | Outcome |
| --- | --- | --- | --- | --- | --- | --- | --- |
| CG42241 (retired record) | DRSC04007 | 2.04e7 | 3.51e7 | – | 1.10e7 | 1.51e7 | inactive |
| CG13428 | DRSC06390 | 5.28e7 | 3.34e7 | – | 2.16e7 | 1.64e7 | inactive |
| CG3630 | DRSC18499 | 2.57e7 | 3.47e7 | – | 1.32e7 | 1.72e7 | inactive |

More entries:
| gene | amplicon | calcium entry signal, replicate 1 (fluorescence units) | calcium entry signal, replicate 2 (fluorescence units) | entry to resting ratio | resting calcium signal, replicate 1 (fluorescence units) | resting calcium signal, replicate 2 (fluorescence units) | Outcome |
| --- | --- | --- | --- | --- | --- | --- | --- |
| tef | DRSC07301 | 3.81e7 | 4.19e7 | – | 1.86e7 | 1.90e7 | inactive |
| tef | DRSC22041 | 3.16e7 | 3.86e7 | – | 1.49e7 | 2.18e7 | inactive |
| CG30423 | DRSC04013 | 2.35e7 | 3.76e7 | – | 1.17e7 | 1.64e7 | inactive |
| CG31693 | DRSC03674 | 2.99e7 | 5.45e7 | – | 1.41e7 | 2.19e7 | inactive |
| CG6569 | DRSC16067 | 4.29e7 | 4.07e7 | – | 5.58e7 | 1.96e7 | inactive |
| CG6462 | DRSC10641 | 2.54e7 | 4.19e7 | – | 1.25e7 | 1.89e7 | inactive |
| yellow-b | DRSC03639 | 4.96e7 | – | – | 2.48e7 | – | inactive |
| EndoGI | DRSC01964 | 5.04e7 | 3.75e7 | – | 2.16e7 | 1.88e7 | inactive |
| GstE3 | DRSC06673 | 5.53e7 | 6.51e7 | – | 2.31e7 | 2.82e7 | inactive |
| AANATL7 | DRSC18616 | 3.44e7 | 4.30e7 | 1.9 | 1.82e7 | 1.60e7 | inactive |
| CG42586 + CG31775 | DRSC01413 | 3.39e7 | 3.91e7 | – | 2.03e7 | 1.98e7 | inactive |
| CG6337 | DRSC06977 | 3.74e7 | 4.97e7 | – | 1.89e7 | 2.10e7 | inactive |
| CG6337 | DRSC21870 | 2.63e7 | 6.60e7 | – | 1.36e7 | 2.84e7 | inactive |
| CG15373 | DRSC19663 | 3.50e7 | 3.11e7 | – | 1.80e7 | 1.57e7 | inactive |
| CG31659 | DRSC00760 | 3.79e7 | 4.16e7 | – | 1.80e7 | 1.99e7 | inactive |
| Rad17 | DRSC16811 | 3.05e7 | 4.15e7 | – | 1.53e7 | 6.75e7 | inactive |
| CG13623 | DRSC14625 | 3.80e7 | 4.21e7 | – | 1.99e7 | 1.94e7 | inactive |
| CG7786 | DRSC07045 | 4.44e7 | 5.81e7 | – | 1.78e7 | 2.51e7 | inactive |
